Measurements reported in patent EP0657455A1, “Epi-epibatidine derivatives, a process and intermediates for preparing them and epi-epibatidine and medicaments containing the epi-epibatidine derivatives and/or epi-epibatidine and the use of them” (priority 1993, dated 1995).

System: NMRI male mice
Assay: Hot plate test in mice
Details: mouse, in vivo, sc
Method: Hot plate test in mice Method
A modification of method of Eddy et al. (1953) Eddy, N. B., Leimback D.: Synthetic analgesics II. Dithienylbutenyl and dithienylbutylamines. J. Pharmacol. Exp. Ther. 107 /1953/, 385 to 393 was used. NMRI male mice (20 to 25 g body weight) were dropped on a hot plate (56.0 ± 0.5°C) and the latency time elapsed until licking the forepaws was measured. The compounds were administered subcutaneously and 15, 30, 45 and 60 minutes later the reaction time was measured again. Animals were regarded as positive if they produced at least twice 2.5-fold reaction time extension as related to their control values.

## CN1CC[C@]23c4c5ccc(O)c4O[C@H]2[C@@H](O)C=C[C@H]3[C@H]1C5.Cl [Reference substance A, Morphine-HCl]
  ED50: 2.7 mg/kg s.c.
